Record: PubChem BioAssay AID504791 (Drosophila RNAi Screening Center, 2011)

- Purpose: 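Genes of the fly required for silencing by miRNA, siRNA or endo-siRNA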 (primary screen)
- Cell system: Drosophila S2-derived reporter cells
- Reagent: long dsRNA against Drosophila genes, about 150-250 ng dsRNA per well (siRNA assay); about 80-120 ng (miRNA assay)
- Duration: about 5 days (siRNA assay); about 4 days (miRNA assay)
- Conditions: copper sulfate induction of reporters: 25 µM (siRNA assay); 200 mM stated (miRNA assay), 1-2 days before reading
- Measurement: 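Dual luciferase assay: Renilla to firefly signal ratio in each well, scaled to the mean ratio of its plate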
- Hit rule: 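First-pass picks had plate-scaled ratios over 1.5 for the siRNA assay, over 1.6 for the miRNA assay, or under 0.6; two distinct dsRNAs had to score alike on retest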
The deposit covers about 23,000 reagents; this is an unselected part of those that have a named target and a result. In the full data, 199 (0.86%) got an active call. 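Plate-scaled ratios behind the calls are not deposited; printed light signals are raw; many rows marked increased or decreased are still called inactive.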 Entries without a mark were called inactive. The record does not give: the direction of the score.

no.	target gene	amplicon	stable siRNA reporter change	miRNA reporter change	stable assay Renilla, run 1 (luminescence)	stable assay firefly, run 1 (luminescence)
1	trp (GeneID 43542)	DRSC17088			7074	3.10e5
2	Cds (GeneID 43950)	DRSC10938			7813	3.33e5
3	CG34150 (GeneID 4379863)	DRSC13689			5718	3.52e5
4	CG13216 (GeneID 36181)	DRSC06338			7686	5.39e5
5	neb (GeneID 35293)	DRSC03577			8067	2.18e6
6	bys (GeneID 31701)	DRSC18748			6892	3.94e5
7	CG15533 (GeneID 43612)	DRSC15069			7011	4.94e5
8	kl-3 (retired record) (GeneID 5740653)	DRSC20730	reporter ratio raised past the hit cutoff		4047	1.59e5
9	kl-3 (retired record) (GeneID 5740653)	DRSC20891			5382	3.78e5
10	kl-3 (retired record) (GeneID 5740653)	DRSC20934			4187	3.71e5
11	Rbp (GeneID 41880)	DRSC15724			8379	6.91e5
12	Rbp (GeneID 41880)	DRSC15726			6247	3.48e5
13	CG12692 (GeneID 31372)	DRSC17881			5823	3.04e5
14	Rab9 (GeneID 35221)	DRSC03281			7251	5.25e5
15	Spn28F (GeneID 49807)	DRSC03615			7583	3.19e5
16	CR40441 (GeneID 10178882)	DRSC22916			3659	3.82e5
17	Lcp65Ad (GeneID 38707)	DRSC11211			7140	6.26e5
18	CG30288 (GeneID 246531)	DRSC22005			8301	5.30e5
19	CG31075 (GeneID 43244)	DRSC16016			6763	3.46e5
20	Rbf (GeneID 31027)	DRSC18704			10620	5.88e5
21	CG32148 (GeneID 251924)	DRSC09338			5423	3.67e5
22	CCDC53 (GeneID 34097)	DRSC03056			7640	3.97e5
23	CG7798 (GeneID 36798)	DRSC07047			6555	3.69e5
24	Rlip (GeneID 42484)	DRSC16828			7322	3.31e5
25	Kdsr (GeneID 43043)	DRSC14245			4007	4.31e5
26	Clp (GeneID 33259)	DRSC00746	reporter ratio raised past the hit cutoff		13057	4.07e5
27	CG11523 (GeneID 40458)	DRSC11669			10552	3.22e5
28	Rap2l (GeneID 37850)	DRSC04646			6827	4.88e5

A portion from the list above, for reference:
no.	target gene	amplicon	stable siRNA reporter change	miRNA reporter change	stable assay Renilla, run 1 (luminescence)	stable assay firefly, run 1 (luminescence)
18	CG30288 (GeneID 246531)	DRSC22005			8301	5.30e5
19	CG31075 (GeneID 43244)	DRSC16016			6763	3.46e5
20	Rbf (GeneID 31027)	DRSC18704			10620	5.88e5
21	CG32148 (GeneID 251924)	DRSC09338			5423	3.67e5
22	CCDC53 (GeneID 34097)	DRSC03056			7640	3.97e5
23	CG7798 (GeneID 36798)	DRSC07047			6555	3.69e5
24	Rlip (GeneID 42484)	DRSC16828			7322	3.31e5
25	Kdsr (GeneID 43043)	DRSC14245			4007	4.31e5
26	Clp (GeneID 33259)	DRSC00746	reporter ratio raised past the hit cutoff		13057	4.07e5

Next reagents:
no.	target gene	amplicon	stable siRNA reporter change	miRNA reporter change	stable assay Renilla, run 1 (luminescence)	stable assay firefly, run 1 (luminescence)
29	RpL34a (GeneID 43169)	DRSC15964			7087	3.20e5
30	a10 (GeneID 39906)	DRSC11319			8443	4.02e5
31	CG1999 (GeneID 31671)	DRSC18199	reporter ratio lowered past the hit cutoff		3332	3.68e5
32	mRpS2 (GeneID 33688)	DRSC00550			11051	7.52e5
33	Cyt-c-p (GeneID 34996)	DRSC03310			7419	5.07e5
34	CG8026 (GeneID 35941)	DRSC07055			5071	5.22e5
35	CG8026 (GeneID 35941)	DRSC07056			6640	4.35e5
36	cry (GeneID 42305)	DRSC16928			8695	3.77e5
37	Scp1 (GeneID 3355102)	DRSC20799			4767	3.83e5
38	Scp1 (GeneID 3355102)	DRSC20803			4847	4.53e5
39	Scp1 (GeneID 3355102)	DRSC20806			5620	3.48e5
40	dbo (GeneID 53556)	DRSC11339			8737	3.40e5
41	CG11983 (GeneID 41081)	DRSC14458			7167	4.20e5
42	CG31125 (GeneID 318599)	DRSC13684			8327	5.99e5
43	UbcE2M (GeneID 38916)	DRSC10828			8889	5.98e5
44	CG1213 (GeneID 40728)	DRSC12191			7190	3.96e5
45	fz2 (GeneID 40090)	DRSC09595			7247	4.51e5
46	fz2 (GeneID 40090)	DRSC10087			5240	4.81e5
47	fz2 (GeneID 40090)	DRSC11349			6966	4.66e5
48	Hgsnat (GeneID 31423)	DRSC18405	reporter ratio lowered past the hit cutoff (active)		6330	6.43e5
49	Hgsnat (GeneID 31423)	DRSC24716		reporter ratio lowered past the hit cutoff (active)		
50	CG30369 (GeneID 246572)	DRSC21996			8716	5.88e5
51	Oatp58Dc (GeneID 37545)	DRSC04363			11801	1.17e6
52	CG6403 (GeneID 43220)	DRSC16033			6050	3.60e5
53	CG9624 (GeneID 41730)	DRSC16523			8206	5.58e5
54	Ccp84Ag (GeneID 40819)	DRSC12592			7324	5.15e5
55	Ccp84Ag (GeneID 40819)	DRSC22085			7955	4.50e5
56	PSMG1 (GeneID 40719)	DRSC12297			9226	3.94e5
57	CG12835 (retired record) (GeneID 35632)	DRSC06181			10401	4.16e5
